No constants are given. Whether binding was seen depends on the method and setting. In cells and extracts the contact can be indirect. Some results given as binding are weak or reduced against the parent protein; the word gives no strength.
T1: Estrogen-related receptor alpha (UniProt P11474)
T1 sequence: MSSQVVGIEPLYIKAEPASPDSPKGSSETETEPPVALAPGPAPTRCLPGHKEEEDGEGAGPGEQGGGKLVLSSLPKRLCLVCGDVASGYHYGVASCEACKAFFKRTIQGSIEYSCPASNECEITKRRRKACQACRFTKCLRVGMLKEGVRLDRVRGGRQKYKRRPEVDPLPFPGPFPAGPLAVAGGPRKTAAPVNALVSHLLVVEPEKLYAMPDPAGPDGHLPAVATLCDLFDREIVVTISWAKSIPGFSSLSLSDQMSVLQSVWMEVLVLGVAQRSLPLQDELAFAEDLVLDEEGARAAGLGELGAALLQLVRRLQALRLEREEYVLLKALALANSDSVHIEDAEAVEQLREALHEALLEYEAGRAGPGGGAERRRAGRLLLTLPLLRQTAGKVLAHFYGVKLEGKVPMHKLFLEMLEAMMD

The chains behind the UniProt entries cited, without tags or fusion partners.
UniProt Q16665: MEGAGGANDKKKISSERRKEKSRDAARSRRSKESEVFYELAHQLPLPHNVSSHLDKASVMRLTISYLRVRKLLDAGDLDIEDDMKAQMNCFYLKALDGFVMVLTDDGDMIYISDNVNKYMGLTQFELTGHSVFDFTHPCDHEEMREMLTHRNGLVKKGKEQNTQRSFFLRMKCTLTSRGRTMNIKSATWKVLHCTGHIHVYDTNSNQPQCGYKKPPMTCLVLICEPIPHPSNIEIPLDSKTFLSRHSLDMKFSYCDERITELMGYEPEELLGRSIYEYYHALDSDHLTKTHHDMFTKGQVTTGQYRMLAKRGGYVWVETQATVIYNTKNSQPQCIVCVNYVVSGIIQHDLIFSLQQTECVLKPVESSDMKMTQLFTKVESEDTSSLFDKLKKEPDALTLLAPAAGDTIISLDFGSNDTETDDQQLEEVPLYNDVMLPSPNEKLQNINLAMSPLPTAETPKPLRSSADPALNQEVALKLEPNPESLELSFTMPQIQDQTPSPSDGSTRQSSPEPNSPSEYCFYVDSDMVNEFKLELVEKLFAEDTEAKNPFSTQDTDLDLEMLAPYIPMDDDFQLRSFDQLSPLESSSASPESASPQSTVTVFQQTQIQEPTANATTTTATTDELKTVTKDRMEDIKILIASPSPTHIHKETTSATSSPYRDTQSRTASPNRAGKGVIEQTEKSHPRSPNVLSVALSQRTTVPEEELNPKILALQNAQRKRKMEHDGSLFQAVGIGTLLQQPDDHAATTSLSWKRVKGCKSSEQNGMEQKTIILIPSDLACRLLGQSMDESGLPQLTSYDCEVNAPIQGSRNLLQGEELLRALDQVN


Key:
[1] = biological target: T1, Estrogen-related receptor alpha; assay: co-IP; HEC-1A-ovERRα cell lysate in IP buffer with protease inhibitor; incubated overnight with ERRα antibody (sc-65720), HIF-1α antibody (20960-1-AP) or control IgG; protein A agarose beads 2-4 h; SDS-PAGE and WB
[2] = biological target: Hypoxia-inducible factor-1 alpha (human (endogenous in HEC-1A)) (UniProt Q16665); assay: as above

| binding [1] | binding [2] | Molecule |
| --- | --- | --- |
| binds |  | Hypoxia-inducible factor-1 alpha (from UniProt Q16665 1-826) |
|  | binds | Estrogen-related receptor alpha (protein, UniProt P11474 1-423) MSSQVVGIEPLYIKAEPASPDSPKGSSETETEPPVALAPGPAPTRCLPGHKEEEDGEGAGPGEQGGGKLVLSSLPKRLCLVCGDVASGYHYGVASCEACKAFFKRTIQGSIEYSCPASNECEITKRRRKACQACRFTKCLRVGMLKEGVRLDRVRGGRQKYKRRPEVDPLPFPGPFPAGPLAVAGGPRKTAAPVNALVSHLLVVEPEKLYAMPDPAGPDGHLPAVATLCDLFDREIVVTISWAKSIPGFSSLSLSDQMSVLQSVWMEVLVLGVAQRSLPLQDELAFAEDLVLDEEGARAAGLGELGAALLQLVRRLQALRLEREEYVLLKALALANSDSVHIEDAEAVEQLREALHEALLEYEAGRAGPGGGAERRRAGRLLLTLPLLRQTAGKVLAHFYGVKLEGKVPMHKLFLEMLEAMMD |
